The campaign covered roughly 320,000 compounds. About 22,000 (6.9%) were called active. Inconclusive results, whose numbers are uncertain, are shown with a selection of clear calls. Calls follow the shape of the dose curve; as a rule, active = well fitted inhibition curve with a large enough effect; inconclusive = small, poorly fitted or top-dose-only effect, or another doubt; inactive = no such curve, though single readings can be large or run the other way. Where the call is inconclusive, the potency comes from a doubtful curve fit.
Experiment: Primary qHTS for delayed death inhibitors of the malarial parasite plastid, 96 hour incubation
Settings: P. falciparum luciferase reporter growth; series mostly up to 28.7 µM; activity change, negative = inhibition: at the top concentration
In short: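 Cell-based qHTS: luciferase-tagged P. falciparum in erythrocytes (2% hematocrit, 0.05% parasitemia final) incubated with compounds for 96 hours, 37 C, 5% CO2; luciferase detection reagent then added and luminescence measured.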
% is scaled to controls: 0 for no effect and ±100 for the full control effect; potency is read from the fitted curve at half-maximal effect.

| Compound | activity change, negative = inhibition | Potency |
| --- | --- | --- |
| CCc1ccccc1NC(=O)NNS(=O)(=O)c1cc(C)ccc1C | inactive: -9.95% |  |
| N#Cc1ccc(OCC(=O)OCCCOC(=O)COc2ccc(C#N)cc2)cc1 |  | inconclusive: 13.1 µM [inhibitor, single point] |
| CCOc1cc(C(=O)Nc2ccc(C)cc2O)ccc1OCC(=O)N1CCOCC1 |  | inconclusive: 14.7 µM [inhibitor, partial curve, poor fit] |
| CCCCNC(=S)N/N=C/c1cc(C)ccc1C |  | inconclusive: 18.5 µM [inhibitor, single point] |
| CCN(CCO)CCCC(C)Nc1ccnc2cc(Cl)ccc12 (configuration not stated) |  | active: 0.169 µM |
| CC(=O)N1CCN(CC(O)COc2ccc(Br)cc2)CC1 (configuration not stated) |  | inconclusive: 18.5 µM [inhibitor, single point] |
| Cc1ccccc1/C=C/C12NC(=O)CN1c1ccccc1C2(C)C (configuration not stated) |  | inconclusive: 14.7 µM [inhibitor, single point] |
| CC(C)OC(=O)C1C(=O)CC(C)(O)C(C(=O)OC(C)C)C1c1cccc([N+](=O)[O-])c1 (configuration not stated) |  | inconclusive: 0.37 µM [inhibitor, full curve, poor fit] |
| COc1ccc(-n2nc(C(=O)NCC(=O)NC3CCCC(C)C3C)c3ccccc3c2=O)c(OC)c1 (configuration not stated) |  | active: 5.86 µM |
| CCN1CCN(Cc2ccc(NC(=O)c3ccc(C)c(NC(=O)c4ccc5n[nH]nc5c4)c3)cc2C(F)(F)F)CC1 | inactive: 28.2% |  |
| CCOC(=O)c1ccc(NC(=O)Cn2cccc2)cc1 |  | inconclusive: 18.5 µM [inhibitor, single point] |
| COc1ccc(C2N3CC(C)(C)CN23)cc1 (configuration not stated) |  | inconclusive: 18.5 µM [inhibitor, single point] |
| O=c1c2sccc2nc(SCc2cc(=O)n3cc(Br)ccc3n2)n1Cc1ccccn1 |  | inconclusive: 5.86 µM [inhibitor, single point] |
| CCOc1cccc(OCCOCCN2CCCC2)c1 | inactive: 0.596% |  |
| COc1ccc(CC(=O)OCC(=O)NCc2ccccc2Cl)cc1 |  | inconclusive: 0.294 µM [inhibitor, partial curve, poor fit] |
| CCN(CC(=O)Nc1ccc(C)c(S(=O)(=O)N2CCOCC2)c1)Cc1ccccc1 |  | inconclusive: 2.94 µM [inhibitor, full curve] |
| Cc1nonc1CN(C)C(=O)c1ccc(OC2CCN(Cc3ccccn3)CC2)cc1 |  | inconclusive: 18.5 µM [inhibitor, single point] |
| O=[N+]([O-])c1cc(-c2ccc(/C=N\n3cnnc3)o2)cc([N+](=O)[O-])c1 |  | inconclusive: 1.65 µM [inhibitor, full curve, poor fit] |
| CCOC(=O)CNC(=O)C(NC(=O)C1CCC(C)CC1)C(C)CC (configuration not stated) | inactive: 12.3% |  |
| O=c1ccc2ccc(O[C@@H]3O[C@H](CO)[C@@H](O)[C@H](O)[C@H]3O)c(O)c2o1 | inactive: 36.2% |  |
| Clc1ccccc1COc1ccccc1-c1nnco1 | inactive: -22.5% |  |
| CCCCCCN=C(C)C1=C(O)C(C(=O)OC)C(C)(C)CC1=O (configuration not stated) |  | inconclusive: 11.7 µM [inhibitor, single point] |
| CCOc1ccc(NC(=O)NNC(=O)c2ccc(Cl)cc2Cl)cc1 |  | inconclusive: 10.4 µM [inhibitor, partial curve] |
| O=C(CSc1ccc(-c2ccccc2)nn1)N1CCOCC1 | inactive: -19.9% |  |

Reformatted in CSV form: part of the list above
Compound,"activity change, negative = inhibition",Potency
COc1ccc(CC(=O)OCC(=O)NCc2ccccc2Cl)cc1,,"inconclusive: 0.294 µM [inhibitor, partial curve, poor fit]"
CCN(CC(=O)Nc1ccc(C)c(S(=O)(=O)N2CCOCC2)c1)Cc1ccccc1,,"inconclusive: 2.94 µM [inhibitor, full curve]"

Later entries.

| Compound | activity change, negative = inhibition | Potency |
| --- | --- | --- |
| COc1cc(OC)cc(C(=O)Nc2nc3ccc(S(C)(=O)=O)cc3s2)c1 | inactive: 118% |  |
| Cc1ccc2[nH]c3c(c2c1)CCN1C(=O)OC(C)(C)C31C (configuration not stated) |  | inconclusive: 18.5 µM [inhibitor, single point] |
| CCOc1cc(NC(=S)NCC2CCCO2)c(OCC)cc1NC(=O)c1cccc(C)c1 (configuration not stated) |  | active: 11.7 µM |
| O=C(CSc1nnc(NC(=O)C2CC2)s1)NCc1ccccc1 | inactive: 0.721% |  |
| O=C(N/C(=C/c1cccs1)C(=O)N1CCOCC1)c1cccs1 |  | active: 9.28 µM |
| O=C(NCc1ccco1)/C(=C/C=C/c1ccccc1)NC(=O)c1ccco1 |  | inconclusive: 18.5 µM [inhibitor, single point] |
| O=C(C1=C[C@H](C2CC2)C[C@H](OCCCCO)O1)N1CCOCC1 | inactive: 5.32% |  |
| Cc1nc2c(sc3nc4c(cc32)COC(C)(C)C4)c(=O)o1 |  | inconclusive: 18.5 µM [inhibitor, single point] |
| O=C(O)c1cccc(OCc2ccccc2Cl)c1 |  | inconclusive: 0.0026 µM [inhibitor, full curve, poor fit] |
| Cc1ccnc(Nc2nc3ccccc3o2)n1 |  | inconclusive: 5.86 µM [inhibitor, partial curve, poor fit] |
| OCC[C@H]1C[C@H](O)[C@@H](O)[C@]2(CCc3ccccc3O2)O1 | inactive: 0% |  |
| O=C1CC(c2c[nH]c3ccccc23)C(=O)N1c1ccccc1 (configuration not stated) |  | active: 7.38 µM |
| COc1ccc(OC)c(C2=NOC(C(=O)Nc3cccc(C(C)=O)c3)C2)c1 (configuration not stated) |  | active: 9.28 µM |
| COc1ccccc1OCCCn1c(=O)sc2ccccc21 | inactive: 7.64% |  |
| NC(=O)C1CCN(c2ncnc3c(-c4ccccc4)nsc23)CC1 | inactive: 42.7% |  |
| CCCc1nc(N2CCCC2)c(C#N)c2c1CCCC2 |  | inconclusive: 16.5 µM [inhibitor, partial curve, poor fit] |
| O=C(Cc1c(F)cccc1Cl)N1CCCC1 | inactive: -26.8% |  |
| C[C@H]1CCC[C@]2(C)C[C@H]3OC(=O)C(CN4CCCCCC4)[C@H]3C=C12 (some centres not stated) |  | inconclusive: 5.86 µM [inhibitor, partial curve, poor fit] |
| CC(=O)Nc1ccc(NC(=O)C2c3ccccc3Oc3ccccc32)cc1 |  | inconclusive: 18.5 µM [inhibitor, single point] |
| O=C1C(NS(=O)(=O)c2cccs2)=C(N2CCOCC2)C(=O)c2ccccc21 |  | inconclusive: 1.31 µM [inhibitor, partial curve, poor fit] |
| COc1ccc(/C=C(\C#N)c2nc3ccc(C)cc3[nH]2)cc1Oc1ccc(C(F)(F)F)cc1[N+](=O)[O-] |  | inconclusive: 1.17 µM [inhibitor, full curve, poor fit] |
| CCOC(=O)C(O)(c1ccc(NC(=S)NC(=O)c2ccc(Cl)cc2Cl)c(C)c1)C(F)(F)F (configuration not stated) |  | inconclusive: 5.22 µM [inhibitor, partial curve, poor fit] |
| O=C(c1ccc(S(=O)(=O)Cc2ccccc2Cl)c([N+](=O)[O-])c1)N1CCOCC1 | inactive: 8.11% |  |
| COc1ccc(CNCc2ccc3c(c2)OCO3)c(OC)c1OC |  | inconclusive: 18.5 µM [inhibitor, single point] |

Structural class, those above containing nitrogen in an aromatic ring

| Compound | activity change, negative = inhibition | Potency |
| --- | --- | --- |
| CCN(CCO)CCCC(C)Nc1ccnc2cc(Cl)ccc12 (configuration not stated) |  | active: 0.169 µM |
| COc1ccc(-n2nc(C(=O)NCC(=O)NC3CCCC(C)C3C)c3ccccc3c2=O)c(OC)c1 (configuration not stated) |  | active: 5.86 µM |
| CCN1CCN(Cc2ccc(NC(=O)c3ccc(C)c(NC(=O)c4ccc5n[nH]nc5c4)c3)cc2C(F)(F)F)CC1 | inactive: 28.2% |  |
| CCOC(=O)c1ccc(NC(=O)Cn2cccc2)cc1 |  | inconclusive: 18.5 µM [inhibitor, single point] |
| O=c1c2sccc2nc(SCc2cc(=O)n3cc(Br)ccc3n2)n1Cc1ccccn1 |  | inconclusive: 5.86 µM [inhibitor, single point] |
| Cc1nonc1CN(C)C(=O)c1ccc(OC2CCN(Cc3ccccn3)CC2)cc1 |  | inconclusive: 18.5 µM [inhibitor, single point] |
| O=[N+]([O-])c1cc(-c2ccc(/C=N\n3cnnc3)o2)cc([N+](=O)[O-])c1 |  | inconclusive: 1.65 µM [inhibitor, full curve, poor fit] |
| Clc1ccccc1COc1ccccc1-c1nnco1 | inactive: -22.5% |  |
| O=C(CSc1ccc(-c2ccccc2)nn1)N1CCOCC1 | inactive: -19.9% |  |
| COc1cc(OC)cc(C(=O)Nc2nc3ccc(S(C)(=O)=O)cc3s2)c1 | inactive: 118% |  |
| Cc1ccc2[nH]c3c(c2c1)CCN1C(=O)OC(C)(C)C31C (configuration not stated) |  | inconclusive: 18.5 µM [inhibitor, single point] |
| O=C(CSc1nnc(NC(=O)C2CC2)s1)NCc1ccccc1 | inactive: 0.721% |  |
| Cc1nc2c(sc3nc4c(cc32)COC(C)(C)C4)c(=O)o1 |  | inconclusive: 18.5 µM [inhibitor, single point] |
| Cc1ccnc(Nc2nc3ccccc3o2)n1 |  | inconclusive: 5.86 µM [inhibitor, partial curve, poor fit] |
| O=C1CC(c2c[nH]c3ccccc23)C(=O)N1c1ccccc1 (configuration not stated) |  | active: 7.38 µM |
| COc1ccccc1OCCCn1c(=O)sc2ccccc21 | inactive: 7.64% |  |
| NC(=O)C1CCN(c2ncnc3c(-c4ccccc4)nsc23)CC1 | inactive: 42.7% |  |
| CCCc1nc(N2CCCC2)c(C#N)c2c1CCCC2 |  | inconclusive: 16.5 µM [inhibitor, partial curve, poor fit] |
| COc1ccc(/C=C(\C#N)c2nc3ccc(C)cc3[nH]2)cc1Oc1ccc(C(F)(F)F)cc1[N+](=O)[O-] |  | inconclusive: 1.17 µM [inhibitor, full curve, poor fit] |

Carrying on:

| Compound | activity change, negative = inhibition | Potency |
| --- | --- | --- |
| Cc1cccc(N(CC(=O)NCc2ccco2)C(=O)CCC(=O)Nc2nccs2)c1 | inactive: -15.4% |  |
| CC(=O)N(CCC1(C(C)C)CCOC(C)(C)C1)C(C)c1cccs1 (configuration not stated) |  | inconclusive: 5.86 µM [inhibitor, partial curve, poor fit] |
| O=C(NCC(c1ccco1)N1CCN(c2ccccc2F)CC1)c1ccc2c(c1)OCO2 (configuration not stated) |  | inconclusive: 0.0329 µM [inhibitor, full curve, poor fit] |
| c1ccc(-c2nc(NCc3cccnc3)c3ccccc3n2)cc1 |  | inconclusive: 11.7 µM [inhibitor, single point] |
| N#C/C=C1/NC(=O)c2ccccc2S1 | inactive: 3.68% |  |
| COc1ccc(C2N3CC4(C)CN2CC(C)(C3)C4O)cc1OC (configuration not stated) |  | inconclusive: 10.4 µM [inhibitor, single point] |
| Cc1nn(-c2nc3ccccc3s2)c(C)c1Oc1ccccc1O | inactive: 328% |  |
| NCCCCCc1cn([C@@H](CCC(=O)O)C(=O)NCCCCCCCCCCC(=O)N2CCNCC2)nn1 | inactive: 2.68% |  |
| COc1ccc(OC)c(NC(=O)c2sc3nc(C)cc(C)c3c2N)c1 |  | inconclusive: 11.7 µM [inhibitor, single point] |
| COc1cc(NC(=O)N2c3ccccc3Sc3ccccc32)c(C(=O)O)cc1OC |  | inconclusive: 18.5 µM [inhibitor, single point] |
| COc1ccc(CC(=O)Nc2cccc(S(=O)(=O)N3CCOCC3)c2)cc1OC |  | inconclusive: 18.5 µM [inhibitor, single point] |
| O=C(OCC(=O)N1CCCC1=O)c1ccc(O)cc1O | inactive: 9.51% |  |
| Cc1ccc(OCCN(C)C(=O)C2CCC(=O)N(CC3CCCCC3)C2)cc1 (configuration not stated) |  | inconclusive: 18.5 µM [inhibitor, single point] |
| Cc1cc(C)cc(CC(Cc2nc3ccccc3[nH]2)c2nc3ccccc3[nH]2)c1 (configuration not stated) | inactive: 121% |  |
| COc1ccc(/C=N/NC(=O)c2ccccc2O)cc1CSc1ccccn1 | inactive: -21% |  |
| O=C(O)CN=C1NC2(CCCCC2)Cc2ccccc21 |  | inconclusive: 9.28 µM [inhibitor, partial curve, poor fit] |
| Cc1ccc(NC(=O)Cc2c(C(=O)O)n(C)c3ccccc23)cc1F |  | inconclusive: 18.5 µM [inhibitor, single point] |
| O=[N+]([O-])c1cccnc1NCCc1c[nH]c2ccccc12 | inactive: 102% |  |
| O=C(Nc1ncccc1O)c1ccc(S(=O)(=O)Nc2ccccc2)cc1 |  | inconclusive: 0.657 µM [inhibitor, full curve, poor fit] |
| CC(C)CCNC(=O)CN(CC1CCCO1)C(=O)CCC(=O)Nc1nccs1 (configuration not stated) |  | inconclusive: 9.28 µM [inhibitor, partial curve] |
| Cc1cc(Cl)ccc1OC(C)C(=O)Nc1ccc(C(=O)Nc2ccccc2C(=O)O)cc1 (configuration not stated) | inactive: 43.8% |  |
| CN1CCc2c(sc3nc(SCC(=O)N4CCCCC4)n(-c4ccccc4)c(=O)c23)C1 |  | active: 3.29 µM |
| COc1ccc([C@H]2CC(=O)C=C(c3ccc(O)cc3)C2)cc1OC |  | inconclusive: 18.5 µM [inhibitor, single point] |
| CCOc1ccc(C(=O)Nc2cccc([N+](=O)[O-])c2)cc1Br |  | inconclusive: 18.5 µM [inhibitor, single point] |

Source: PubChem BioAssay AID504834 (National Center for Advancing Translational Sciences (NCATS), 2011)
